Measurements taken from PubChem BioAssay AID493014 (National Center for Advancing Translational Sciences (NCATS), 2011).
The whole screen tested about 340,000 compounds, of which about 170 (0.05%) were called active. The inconclusive results got no clear call from the source; some entries with a clear call stand among them for comparison. Calls come from the whole dose curve; as a rule, active = well fitted inhibition curve with a large enough effect in the signal ratio, with a control signal flat (not every such curve was filed as active); inconclusive = small, poorly fitted or top-dose-only effect, or effect the other way, or a change in a side signal; inactive = flat fitted curve, though single readings scatter; the % refers to the signal ratio. Potencies beside an inconclusive call are fits to weak or partial responses and may not hold up.
Potency is the fitted concentration of half-maximal effect.

Experiment: qHTS Assay to Find Inhibitors of Chronic Active B-Cell Receptor Signaling;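 for activity change, negative = inhibition: plate controls were basal doxycycline-induced cells for no effect and cells given 10 µM MG132 for full effect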
Conditions: ABC-DLBCL IkBa-CBG/CBR reporter, luminescence ratio (green luciferase fused to IkBa over red control in TMD8 lymphoma cells), 4 h; activity change, negative = inhibition: at 46.1 µM (top of the series)
Method in brief: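 Doxycycline induced both beetle luciferases in TMD8 lymphoma cells; IKK-driven degradation limits the IkappaBalpha-fused green signal, while red luminescence normalises for cell number and nonspecific effects. Compounds tested up to 46 uM, 4 hrs.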
With `COCCn1c(N)c(N(Cc2ccccc2)C(=O)c2cc3ccccc3o2)c(=O)[nH]c1=O` the “activity change, negative = inhibition” value was inactive: -20.6%.
In the case of `COc1ccc(C(CCN2CCN(c3ccccc3)CC2)c2c(O)cc(OC)cc2OC)cc1` (stereo not drawn), the activity change, negative = inhibition is reported as inconclusive: -1.22%.
For `O=C(CSc1ncccn1)N1CCCCCC1`, the “activity change, negative = inhibition” value was inactive: 0.0058%.
With `O=C1CC(c2ccc(O)cc2)Oc2cc(O)cc(O)c21` (stereo not drawn) the “activity change, negative = inhibition” value was inactive: -2.23%.
For `CC1=C(C(=O)Nc2ccccc2)C(c2ccc(C)o2)n2c(s/c(=C/c3ccccc3)c2=O)=N1` (stereo not drawn), the activity change, negative = inhibition was inconclusive: 3.82%.
With `CCc1ccc(OCC(=O)O/N=C(\N)c2ccccn2)cc1` the activity change, negative = inhibition was inconclusive: -0.472%.
With `O=C(CCCn1c(=S)[nH]c2cc3c(cc2c1=O)OCO3)N1CCN(c2ccccn2)CC1` the “activity change, negative = inhibition” value was inactive: -10.4%.
For `O=C(c1cc(-c2ccccc2)on1)N1CCCC1`, the activity change, negative = inhibition was inconclusive: -25.4%.
With `O=C(c1ccco1)c1n[nH]nc1-c1ccccc1` the activity change, negative = inhibition was inconclusive: 12.8%.
With `N=c1c(C(=O)NC2CCCC2)cc2c(=O)n3ccccc3nc2n1C1CCCCC1` the activity change, negative = inhibition was inconclusive: 2.06%.
In the case of `CC(C)CC1CCCCC1OC(=O)C[N+]1(C)CCCCC1` (stereo not drawn), the activity change, negative = inhibition is reported as inconclusive: -11%.
In the case of `Cc1ccc(NC(=O)Cn2cc(C(=O)c3ccco3)c3ccccc32)cc1`, the Potency is reported as inconclusive: 6.31 µM [falling, partial curve, poor fit].
In the case of `Cc1nc(SCc2ccc(O)c([N+](=O)[O-])c2)c([N+](=O)[O-])[nH]1`, the “activity change, negative = inhibition” value is reported as inactive: 4.83%.
With `Cc1ccc(S(=O)(=O)N2CCN(C(=O)c3n[nH]c(=O)c4ccccc34)CC2)c(C)c1` the activity change, negative = inhibition was inconclusive: -5.28%.
For `COc1cc(C2C(C#N)=C(N)Oc3cc(C)oc(=O)c32)cc2c1OCO2` (stereo not drawn), the activity change, negative = inhibition was inconclusive: 13.5%.
For `C=CCC[C@H](Cc1ccc(F)cc1)C(=O)OC[C@@H](Cc1c[nH]c2ccccc12)NC(=O)[C@H](CC=C)CC(=O)N(CCO)Cc1ccccc1`, the activity change, negative = inhibition was inconclusive: -1.16%.
For `C/C(=N\Nc1cccc([N+](=O)[O-])c1)c1cc(F)ccc1O`, the activity change, negative = inhibition was inconclusive: 12.7%.
For `FC(F)(F)c1nc(-c2cccnc2)ncc1-c1nnnn1-c1ccccc1`, the activity change, negative = inhibition was inconclusive: -14.1%.
For `CCOc1ccc(CCNC(=O)COC(=O)c2cccs2)cc1OCC`, the “activity change, negative = inhibition” value was inactive: -0.186%.
For `Cc1ccc(C)c(N2CC(C(=O)O)CC2=O)c1` (stereo not drawn), the Potency was inconclusive: 6.31 µM [falling, single point].
With `Cc1nnc(SCC(=O)Nc2cccnc2Cl)s1` the activity change, negative = inhibition was inconclusive: 2.72%.
In the case of `Cc1cc(C(=O)N/N=C/c2ccccc2)c(C)o1`, the Potency is reported as inconclusive: 25.1 µM [falling, partial curve].
In the case of `CN(C)CC1CCCCC1C1(O)c2ccccc2CSc2sccc21` (stereo not drawn), the activity change, negative = inhibition is reported as inconclusive: -8.3%.
For `O=C(CSc1ncccn1)n1c2c(c3ccccc31)CCCC2`, the activity change, negative = inhibition was inconclusive: -0.677%.
In the case of `OCCN(CCO)CC(O)COCCC12CC3CC(CC(C3)C1)C2` (stereo not drawn), the Potency is reported as inconclusive: 2.91 µM [rising, single point].
In the case of `CCOC(=O)CSc1nc2cc3c(cc2cc1CC)OCCO3`, the activity change, negative = inhibition is reported as inconclusive: 4.32%.
In the case of `Cc1ccc(N2C(=O)CC(N(O)C3CC(=O)N(c4ccc(C)cc4)C3=O)C2=O)cc1` (stereo not drawn), the “activity change, negative = inhibition” value is reported as inactive: 1.33%.
For `O=C1/C(=C/c2ccco2)SC(=S)N1CCC(=O)N1CCCCC1CCO` (stereo not drawn), the activity change, negative = inhibition was inconclusive: 22.5%.
For `O=C(N/N=C/c1cccnc1)c1cc(Br)ccc1O`, the Potency was inconclusive: 5.62 µM [rising, partial curve].
In the case of `COc1ccc(CN2CCN(C(=O)C3CCN(C(=O)Nc4ccccc4)CC3)CC2)cc1OC`, the “activity change, negative = inhibition” value is reported as inactive: 0.35%.
For `CN(c1nc2ccccc2[nH]c1=O)C1CCCCC1`, the activity change, negative = inhibition was inconclusive: 10.2%.
In the case of `CCN(C(=O)Cc1ccccc1OC)c1nnc(-c2ccncc2)s1`, the “activity change, negative = inhibition” value is reported as inactive: -3.4%.
With `Cc1ccccc1CSCC(=O)NC(=O)NCc1ccco1` the activity change, negative = inhibition was inconclusive: -30.4%.
With `Cc1ccnc(N2C(=O)c3ccccc3C2O)c1` (stereo not drawn) the Potency was inconclusive: 3.26 µM [rising, partial curve, poor fit].
With `Cc1cc(C)n(-c2ccc(C(=O)NCc3ccc(F)cc3)cc2)n1` the activity change, negative = inhibition was inconclusive: 2.68%.
With `O=C(OCc1nc2ccccc2s1)c1cc2ccccc2oc1=O` the Potency was inconclusive: 8.2 µM [rising, partial curve, poor fit].
In the case of `CC(=O)N(C)c1ccc(N=Nc2c(C)[nH]n(-c3ccccc3)c2=O)cc1`, the “activity change, negative = inhibition” value is reported as inactive: 8.95%.
In the case of `CC1(C)CC(=O)C(C(c2ccco2)C2C(=O)CC(C)(C)CC2=O)C(=O)C1`, the activity change, negative = inhibition is reported as inconclusive: 19%.
For `O=c1cc(-c2ccccc2)n2c(SCc3ccc(Br)cc3)nnc2[nH]1`, the Potency was inconclusive: 22.4 µM [falling, single point].
For `COc1ccc(CN2C(=O)CC(Cc3cc(C)cc(C)c3)C2=O)cc1OC` (stereo not drawn), the activity change, negative = inhibition was inconclusive: 0.287%.
For `Cc1cccc2sc(NNC(=O)C3=COCCO3)nc12`, the activity change, negative = inhibition was inconclusive: 5.56%.
With `O=C(NC(=S)Nc1cccc(NC(=S)NC(=O)c2ccco2)n1)c1ccco1` the Potency was inconclusive: 4.47 µM [falling, partial curve, poor fit].
In the case of `COc1cc(NC(=O)c2cc(S(=O)(=O)N3CCCCC3)ccc2N2CCOCC2)cc(OC)c1`, the “activity change, negative = inhibition” value is reported as inactive: -7.01%.
